# PubChem BioAssay AID1224826 – NIAID | 2016
# Screen: 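Regulators of Tlr4 signalling leading to Tnf-alpha expression in macrophages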 (primary screen)
# Cells: RAW264.7 G9 macrophages from mouse bearing reporters for p65 (GFP) and the Tnf promoter (mCherry)
# Knock-down reagent: siRNA pool against mouse genes, 100 nM
# Duration: 16 h of LPS stimulation, after 2 days of siRNA transfection
# Treatment: bacterial lipopolysaccharide (Salmonella minnesota R595), 10 ng/ml
# Read-out: 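Nuclear mCherry signal of the Tnf promoter reporter measured by imaging after background removal, scaled to each plate median and turned into robust z-scores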
# Direction: Tnf reporter robust z-score: higher = stronger Tnf promoter reporter signal after LPS
# Call rule: 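a well counts as active at a score of -1.3 or below (Tlr4 knock-down control median) or above 3 (raised signal); controls and wells holding fewer than 50 cells are excluded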
# Calls: active = Tnf reporter clearly lowered or raised; inactive = no clear change in Tnf reporter
# Shown is one part, drawn at random, of about 17,000 deposited reagents. About 1,110 of them (6.6%) count as active. 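Active means lowered or raised reporter signal; replicate intensities are raw and not normalised per plate.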 Unmarked entries are inactive. Further read-outs or replicates are left out here.
Tnf reporter robust z-score,fewer than 50 cells in well,target gene
-0.59,enough cells in well,Bag2
-0.94,enough cells in well,Odf2l
0.3,enough cells in well,Tfe3
-0.51,enough cells in well,Rtn4rl2
1.63,enough cells in well,Nelfb
-1.19,enough cells in well,Ddx55
-1.31 (active),enough cells in well,Glyat
1.2,enough cells in well,Klk1b16
1.83,enough cells in well,Dcaf8l
-1.25,enough cells in well,Tmem51
-0.12,enough cells in well,Prss37
-1.35 (active),enough cells in well,Apobec2
0.32,enough cells in well,Pcdh15
-1.38 (active),enough cells in well,Dnah5
-0.54,enough cells in well,Anxa7
1.89,enough cells in well,Adh1
-1.61 (active),enough cells in well,Cyp2c65
-0.47,enough cells in well,Cd226
0.96,enough cells in well,Map2k4
-0.39,enough cells in well,Lpin3
,fewer than 50 cells per well; well left out of calls,Pdcd7
0.1,enough cells in well,Efemp2
-0.13,enough cells in well,Or52n2
0.87,enough cells in well,Atg4a
-0.33,enough cells in well,Adprh
,fewer than 50 cells per well; well left out of calls,Ttc12
,fewer than 50 cells per well; well left out of calls,Ttc23
-0.52,enough cells in well,Glipr1
0.05,enough cells in well,Pycard
-0.46,enough cells in well,Fn3krp
4.46 (active),enough cells in well,Sqor
2.22,enough cells in well,Krr1
-0.33,enough cells in well,Dsg2
-0.66,enough cells in well,Pold1
1.81,enough cells in well,Upk3b
0.15,enough cells in well,Cnnm4
0.36,enough cells in well,Fbn2
-0.13,enough cells in well,Pkhd1

Look-ups from the list:
For “fewer than 50 cells in well”, Klk1b16 reads enough cells in well
Pycard, fewer than 50 cells in well = enough cells in well
Tmem51, fewer than 50 cells in well: enough cells in well
Entry for Sqor under “Tnf reporter robust z-score”: 4.46 (active)

The list goes on:
Tnf reporter robust z-score,fewer than 50 cells in well,target gene
-0.77,enough cells in well,Arl10
-0.86,enough cells in well,Kcnma1
-0.14,enough cells in well,Scn1a
-0.58,enough cells in well,Gpr141b
1.03,enough cells in well,Ntf5
,fewer than 50 cells per well; well left out of calls,Or5p66
0.79,enough cells in well,Or5m13b
1.26,enough cells in well,Erdr1x
0.35,enough cells in well,Trpm8
0.08,enough cells in well,Aqp8
1.24,enough cells in well,Itpr2
,fewer than 50 cells per well; well left out of calls,Smc6
-0.87,enough cells in well,Zfp24
0.15,enough cells in well,Adgrf4
0.2,enough cells in well,Adgrg2
-0.01,enough cells in well,Wdr11
0.42,enough cells in well,Fcer1a
-0.25,enough cells in well,Qrfprl
1.56,enough cells in well,Bmx
-0.05,enough cells in well,Ppp2r5d
,fewer than 50 cells per well; well left out of calls,Myl12a
,fewer than 50 cells per well; well left out of calls,Lrrc18
1.51,enough cells in well,Nherf4
1.13,enough cells in well,Or56b2
2.54,enough cells in well,Defa-rs10
-0.24,enough cells in well,Zfyve21
-0.38,enough cells in well,Actr2
-0.24,enough cells in well,Mbd3l1
-1.11,enough cells in well,Myo1c
,fewer than 50 cells per well; well left out of calls,Ppm1m
-0.88,enough cells in well,Klhl28
-0.06,enough cells in well,Vmn1r210
-0.75,enough cells in well,Mcm3ap
-1.14,enough cells in well,Or10c1
0.59,enough cells in well,Gng2
-0.95,enough cells in well,Sbp
0.21,enough cells in well,Sh2d1a
